Data as given in article PMC9123307.
These are yes or no findings as the source states them, for the method shown. Binding seen in cells or lysates may run through a third protein. Some results given as binding are weak or reduced against the parent protein; the word gives no strength.

The chains behind the UniProt entries cited, without tags or fusion partners.
UniProt P06837: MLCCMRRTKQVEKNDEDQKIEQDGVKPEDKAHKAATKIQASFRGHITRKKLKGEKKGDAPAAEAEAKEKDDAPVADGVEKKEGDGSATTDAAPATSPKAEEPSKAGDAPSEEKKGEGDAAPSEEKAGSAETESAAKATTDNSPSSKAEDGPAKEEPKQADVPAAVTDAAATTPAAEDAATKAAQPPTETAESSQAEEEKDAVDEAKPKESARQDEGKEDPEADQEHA

Target: T1, interleukin-4 receptor alpha (IL-4Rα) (mouse (endogenous in brain synaptosomes)) (UniProt P16382)
T1 sequence: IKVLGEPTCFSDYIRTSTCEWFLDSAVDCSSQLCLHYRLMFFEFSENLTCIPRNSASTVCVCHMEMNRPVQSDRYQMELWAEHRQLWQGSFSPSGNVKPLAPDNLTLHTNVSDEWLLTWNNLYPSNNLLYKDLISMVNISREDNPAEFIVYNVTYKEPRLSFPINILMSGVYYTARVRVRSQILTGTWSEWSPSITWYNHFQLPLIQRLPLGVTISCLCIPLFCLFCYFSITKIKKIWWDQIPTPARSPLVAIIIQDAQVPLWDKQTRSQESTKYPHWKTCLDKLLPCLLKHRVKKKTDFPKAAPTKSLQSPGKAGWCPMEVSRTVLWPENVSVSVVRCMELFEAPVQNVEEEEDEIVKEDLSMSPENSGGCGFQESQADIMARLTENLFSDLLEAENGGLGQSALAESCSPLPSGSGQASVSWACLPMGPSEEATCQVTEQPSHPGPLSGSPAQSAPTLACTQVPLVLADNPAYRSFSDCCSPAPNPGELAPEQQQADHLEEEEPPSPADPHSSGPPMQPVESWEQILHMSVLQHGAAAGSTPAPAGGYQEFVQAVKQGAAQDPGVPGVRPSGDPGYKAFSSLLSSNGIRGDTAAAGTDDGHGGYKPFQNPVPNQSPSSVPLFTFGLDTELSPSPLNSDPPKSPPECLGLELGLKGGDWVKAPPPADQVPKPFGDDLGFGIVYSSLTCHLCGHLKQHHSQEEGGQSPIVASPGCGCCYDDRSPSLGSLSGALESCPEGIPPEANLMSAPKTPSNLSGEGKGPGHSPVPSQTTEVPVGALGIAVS
Assay: co-IP; synaptosome lysates (mouse brain) incubated with anti-IL-4Rα (BD Bioscience) or isotype IgG control on protein-A/G agarose beads overnight at 4°C in IP buffer (20 mM Tris-HCl pH 7.5, 150 mM NaCl, 5 mM EDTA, 1 µg/ml pepstatin); Western blot for GAP-43

## Growth-associated protein-43 (GAP-43) (from UniProt P06837 1-227)
  binding: binds
